Patent publication US20200041523A1
Results are given in words; binding and its absence hold for the method and conditions named. Some binding calls cover weakened binding; strength is not graded here.

Molecular target: T1, human BMP15 (native, in female serum sample #6) (human) (UniProt O95972)
T1 sequence: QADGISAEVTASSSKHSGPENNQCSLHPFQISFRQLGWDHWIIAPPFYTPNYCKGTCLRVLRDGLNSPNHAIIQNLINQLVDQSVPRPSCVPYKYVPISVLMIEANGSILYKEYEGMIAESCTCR
Assay: gel filtration HPLC of female serum #6, fractions measured by GDF9, BMP15 and Cumulin ELISAs (one common peak, 70-90 k)

B1: human GDF9 (native, in female serum sample #6) (ligand)
chain: GQETVSSELKKPLGPASFNLSEYFRQFLLPQNECELHDFRLSFSQLKWDNWIVAPHRYNPRYCKGDCPRAVGHRYGSPVHTMVQNIIYEKLDSSVPRPSCVPAKYSPLSVLTIEPDGSIAYKEYEDMIATKCTCR
For B1, which binding is on record?
The binding was “binds”.
